The record followed here is publication PMC9287887.

Amino acid sequences for entries named in this document (tags omitted).
UniProt Q14457: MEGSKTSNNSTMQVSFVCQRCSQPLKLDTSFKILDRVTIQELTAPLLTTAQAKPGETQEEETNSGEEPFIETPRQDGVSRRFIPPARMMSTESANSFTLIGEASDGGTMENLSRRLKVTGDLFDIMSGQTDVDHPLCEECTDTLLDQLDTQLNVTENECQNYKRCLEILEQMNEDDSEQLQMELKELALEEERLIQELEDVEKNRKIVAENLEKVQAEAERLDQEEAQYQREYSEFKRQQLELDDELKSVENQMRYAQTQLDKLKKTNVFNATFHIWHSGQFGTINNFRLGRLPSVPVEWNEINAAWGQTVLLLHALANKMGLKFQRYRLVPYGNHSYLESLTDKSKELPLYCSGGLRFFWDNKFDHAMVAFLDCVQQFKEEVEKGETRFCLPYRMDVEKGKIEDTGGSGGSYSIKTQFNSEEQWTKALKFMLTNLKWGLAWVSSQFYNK

For one assay, the target named is Recombinant GST-Beclin-1 (UniProt Q14457). The assay is described as follows: pull-down; recombinant GST-Beclin-1 on glutathione magnetic agarose beads (blocked with 5% BSA), incubated with KHOS cell lysate for 60 min at 37 °C, western blot; only the target purified. For orientation: In western blotting, separated proteins are transferred to a membrane and probed.

Assay [1] has as its target Beclin-1 (human (endogenous in osteosarcoma cells)) (UniProt Q14457). Kind of assay: co-IP; antibody added to cell lysate for 3 h at 4 °C, protein A-agarose for 1 h, three washes with lysis solution, western blot; precipitating antibody and cell line not stated.

No constants are given. Whether binding was seen depends on the method and setting. In cells and extracts the contact can be indirect. Some entries that bind do so weakly or less than the wild type.

B1: Sialic acid-bound immunoglobulin lectin 15 (Siglec-15) (protein, UniProt Q6ZMC9 20-328)
chain: FVRTKIDTTENLLNTEVHSSPAQRWSMQVPPEVSAEAGDAAVLPCTFTHPHRHYDGPLTAIWRAGEPYAGPQVFRCAAARGSELCQTALSLHGRFRLLGNPRRNDLSLRVERLALADDRRYFCRVEFAGDVHDRYESRHGVRLHVTAAPRIVNISVLPSPAHAFRALCTAEGEPPPALAWSGPALGNSLAAVRSPREGHGHLVTAELPALTHDGRYTCTAANSLGRSEASVYLFRFHGASGASTVALLLGALGFKALLLLGVLAARAARRRPEHLDTPDTPPRSQAQESNYENLSQMNPRSPPATMCSP
As for B1, the binding entry (in the assay with Recombinant GST-Beclin-1; in assay [1]) was “binds” throughout.
